Reference: the supplement of paper PMC12067093, “Discovery and optimisation of a covalent ligand for TRIM25 and its application to targeted protein ubiquitination” (Chemical Science, 2025)
Some of the results follow.

Compound: Cc1cc(ccc1-c1ccccc1)C(=O)N1CCCN(CC1)C(=O)CCl [compound 10]
Assay: probe-labelled cysteine peptide fold change vs DMSO (competition) (log2 fold change); higher = less target engagement (more negative = stronger competition)
Conditions: THP-1, incubation time: 4 h
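Also: competitive profiling in live THP-1 cells: cysteine peptides tagged with an iodoacetamide desthiobiotin (IA-DTB) probe, intensity after compound treatment relative to DMSO-treated cells.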

Target: B4GALT7_Q9UBV7_307_TALSVGGAPCTVLNIMLDCDK (UniProt Q9UBV7)
- probe-labelled cysteine peptide fold change (10 µM): 0.311
- probe-labelled cysteine peptide fold change (50 µM): 0.701

Target: BAZ1B_Q9UIG0_1213_AFHLFCLRPALYEVPDGEWQCPACQPATAR (UniProt Q9UIG0)
- probe-labelled cysteine peptide fold change (10 µM): -0.0307
- probe-labelled cysteine peptide fold change (50 µM): -0.155

Target: BAZ1B_Q9UIG0_1348_CEEILHK (UniProt Q9UIG0)
- probe-labelled cysteine peptide fold change (10 µM): -0.0204
- probe-labelled cysteine peptide fold change (50 µM): 0.0263

Target: BAZ1B_Q9UIG0_1202_LILCDECNK (UniProt Q9UIG0)
- probe-labelled cysteine peptide fold change (10 µM): 0.0976
- probe-labelled cysteine peptide fold change (50 µM): 0.283

Target: BCKDHB_P21953_228_GLLLSCIEDK (UniProt P21953)
- probe-labelled cysteine peptide fold change (10 µM): 0.0863
- probe-labelled cysteine peptide fold change (50 µM): 0.0771

Target: BLMH_Q13867_326_DGEAVWFGCDVGK (UniProt Q13867)
- probe-labelled cysteine peptide fold change (10 µM): -0.0396
- probe-labelled cysteine peptide fold change (50 µM): -0.0318

Target: BAG1_Q99933_322_VQAFLAECDTVEQNICQETER (UniProt Q99933)
- probe-labelled cysteine peptide fold change (10 µM): 0.15
- probe-labelled cysteine peptide fold change (50 µM): -0.17

Target: BLVRA_P53004_281_ILHCLGLAEEIQK (UniProt P53004)
- probe-labelled cysteine peptide fold change (10 µM): 0.0166
- probe-labelled cysteine peptide fold change (50 µM): -0.0931

Target: BAG1_Q99933_272_DLQAEALCK (UniProt Q99933)
- probe-labelled cysteine peptide fold change (10 µM): -0.0132
- probe-labelled cysteine peptide fold change (50 µM): -0.446

Target: BOP1_Q14137_690_YPLFASGSDDGSVIVCHGMVYNDLLQNPLLVPVK (UniProt Q14137)
- probe-labelled cysteine peptide fold change (10 µM): 0.16
- probe-labelled cysteine peptide fold change (50 µM): -0.0619

Target: BABAM2_Q9NXR7_129_ELVQQYHQFQCSR (UniProt Q9NXR7)
- probe-labelled cysteine peptide fold change (10 µM): 0.422
- probe-labelled cysteine peptide fold change (50 µM): 0.207

Target: BLM_P54132_468_ELNFSHLPSNSVSPGDCLLTTTLGK (UniProt P54132)
- probe-labelled cysteine peptide fold change (10 µM): -0.171
- probe-labelled cysteine peptide fold change (50 µM): -0.465

Target: BLMH_Q13867_40_LNSDPQFVLAQNVGTTHDLLDICLK (UniProt Q13867)
- probe-labelled cysteine peptide fold change (10 µM): 0.0304
- probe-labelled cysteine peptide fold change (50 µM): 0.35

Target: BCAT1_P54687_293_RCILDLAHQWGEFK (UniProt P54687)
- probe-labelled cysteine peptide fold change (10 µM): 0.0115
- probe-labelled cysteine peptide fold change (50 µM): -0.332

Target: BIRC6_Q9NR09_566_HQEQHNIPFPCLLAGGLLTYK (UniProt Q9NR09)
- probe-labelled cysteine peptide fold change (10 µM): -0.0568
- probe-labelled cysteine peptide fold change (50 µM): -0.0756

Target: BRAF_P15056_696_LMAECLK (UniProt P15056)
- probe-labelled cysteine peptide fold change (10 µM): 0.0304
- probe-labelled cysteine peptide fold change (50 µM): 0.0117

Target: BOD1L1_Q8NFC6_285_SEEFSDLPCPVEEIK (UniProt Q8NFC6)
- probe-labelled cysteine peptide fold change (10 µM): -0.0744
- probe-labelled cysteine peptide fold change (50 µM): 0.138

Target: BIRC6_Q9NR09_463_RPTLAWLEDSSSCSDIPK (UniProt Q9NR09)
- probe-labelled cysteine peptide fold change (10 µM): 0.0349
- probe-labelled cysteine peptide fold change (50 µM): 0.175

Target: BCL2L2_Q92843_29_GYVCGAGPGEGPAADPLHQAMR (UniProt Q92843)
- probe-labelled cysteine peptide fold change (10 µM): -0.232
- probe-labelled cysteine peptide fold change (50 µM): 0.0369

Target: BCAS3_Q9H6U6_412_VQDICFSHDCR (UniProt Q9H6U6)
- probe-labelled cysteine peptide fold change (10 µM): 0.0615
- probe-labelled cysteine peptide fold change (50 µM): 0.235

Target: BAZ1B_Q9UIG0_1420_QVFTNAEVYNCR (UniProt Q9UIG0)
- probe-labelled cysteine peptide fold change (10 µM): -0.115
- probe-labelled cysteine peptide fold change (50 µM): -0.382

Target: BCORL1_Q5H9F3_1709_LLGSEVEFQSCNS (UniProt Q5H9F3)
- probe-labelled cysteine peptide fold change (10 µM): 0.158
- probe-labelled cysteine peptide fold change (50 µM): 0.132
